According to patent publication US9537110B2, “Chalcogen-containing organic compound and use thereof” (JNC CORPORATION, priority 2012, dated 2017):

Columns and labels:
[1] = Bottom gate-top contact organic FET, film formed by vapor deposition process; conditions: vapor-deposited organic semiconductor layer, film thickness 75 nm
[2] = Bottom gate-top contact organic FET, film formed by gap-cast process; conditions: o-dichlorobenzene solution 0.2% by mass, 120° C.
[3] = Bottom gate-top contact organic FET, film formed by edge-cast process; conditions: o-xylene or 1,2-dichloroethane solution 0.2% by mass, 120° C.

SMILES | Carrier mobility [1] [cm^2/V·s] | ON-OFF ratio [1] | Carrier mobility [2] [cm^2/V • s] | ON-OFF ratio [2] | Carrier mobility [3] [cm^2/V • s] | ON-OFF ratio [3]
c1ccc2cc3c(cc2c1)sc1cc2ccccc2cc13 [Comparative Example 1, dinaphtho[2,3-b:2′,3′-d]thiophene] | 0.4 | 10^6 | – | – | – | –
CCCCCCCCCCc1ccc2cc3c(cc2c1)sc1cc2cc(CCCCCCCCCC)ccc2cc13 [Example 6, 3,9-didecyldinaphtho[2,3-b:2′,3′-d]thiophene] | 5.5 | 10^7 | 6.5 | 10^7 | – | –
CCCCCCCCc1ccc2cc3c(cc2c1)sc1cc2cc(CCCCCCCC)ccc2cc13 [Example 8, 3,9-dioctyldinaphtho[2,3-b:2′,3′-d]thiophene] | – | – | 4.5 | 10^7 | – | –
CCCCCCCCCCc1ccc2cc3sc4cc5ccc(CCCCCCCCCC)cc5cc4c3cc2c1 [Example 2, 2,10-didecyldinaphtho[2,3-b:2′,3′-d]thiophene] | – | – | – | – | 1.0 | 10^5
CCCCCCCCCCc1ccc2cc3c(cc2c1)oc1cc2cc(CCCCCCCCCC)ccc2cc13 [Example 3, 3,9-didecyldinaphtho[2,3-b:2′,3′-d]furan] | – | – | – | – | 2.0 | 10^5
CCCCc1ccc2cc3c(cc2c1)sc1cc2cc(CCCC)ccc2cc13 [Example 9, 3,9-dibutyldinaphtho[2,3-b:2′,3′-d]thiophene] | – | – | – | – | 6.0 | 10^6
CCCCCCc1ccc2cc3c(cc2c1)sc1cc2cc(CCCCCC)ccc2cc13 [Example 7, 3,9-dihexyldinaphtho[2,3-b:2′,3′-d]thiophene] | – | – | – | – | 11.0 | 10^7
CCCCCCCCCCc1ccc2cc3oc4cc5ccc(CCCCCCCCCC)cc5cc4c3cc2c1 [Example 1, 2,10-didecyldinaphtho[2,3-b:2′,3′-d]furan] | – | – | – | – | 1.3 | 10^6
